## Library screening results

Amino acid sequences for entries named in this document (tags omitted).
UniProt E9BF75, entry or part of it: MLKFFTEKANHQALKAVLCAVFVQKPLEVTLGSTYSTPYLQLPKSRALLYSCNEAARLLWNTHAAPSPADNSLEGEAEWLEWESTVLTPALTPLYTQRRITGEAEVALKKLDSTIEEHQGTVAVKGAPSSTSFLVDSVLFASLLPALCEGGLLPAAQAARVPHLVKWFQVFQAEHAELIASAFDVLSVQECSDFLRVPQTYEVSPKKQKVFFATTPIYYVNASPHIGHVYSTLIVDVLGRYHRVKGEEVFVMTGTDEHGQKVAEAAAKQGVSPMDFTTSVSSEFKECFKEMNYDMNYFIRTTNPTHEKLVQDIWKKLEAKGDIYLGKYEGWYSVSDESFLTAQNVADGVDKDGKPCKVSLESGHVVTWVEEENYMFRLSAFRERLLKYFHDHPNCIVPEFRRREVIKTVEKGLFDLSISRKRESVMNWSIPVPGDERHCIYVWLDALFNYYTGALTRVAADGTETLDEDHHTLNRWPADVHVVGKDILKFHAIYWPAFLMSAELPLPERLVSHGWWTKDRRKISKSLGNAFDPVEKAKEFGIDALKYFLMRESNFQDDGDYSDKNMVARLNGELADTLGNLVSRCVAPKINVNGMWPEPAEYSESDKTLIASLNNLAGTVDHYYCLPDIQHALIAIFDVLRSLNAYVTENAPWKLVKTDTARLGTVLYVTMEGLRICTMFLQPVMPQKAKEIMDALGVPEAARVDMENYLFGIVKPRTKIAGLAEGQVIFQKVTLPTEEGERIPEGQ

Measurements from “University of Dundee, Small-Polar-MMV Screening Library” (2021), ChEMBL document CHEMBL3988442.

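Methionyl-tRNA synthetase (putative), Leishmania donovani (UniProt E9BF75). Primary screen of methionyl-tRNA synthetase; the read-out is not stated. The test concentration is not given. The values are filed as inhibition. Of about 68,000 compounds tested this way, about 24 (0.035%) reached 50% or more in at least one test.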

Results are percentages, as filed.
The controls that fix the scale are not given in the record; negative values are as filed.
Compounds were drawn at random from those tested, without regard to their results.

COc1ccccc1CNC(=O)N1CCCC(c2nncn2C)C1 (centres undefined) read 16.54%. With CCc1c(C(=O)O)nnn1-c1cc(C)ccc1C the screen gave 11.78%. Result for O=C(c1cnccn1)N1C[C@@H]2[C@@H](C1)OCC(=O)N2CC1CCCC1 was -221.2%. Cc1cccc(S(=O)(=O)N2CSCC2C(=O)NCC2CC2)c1 (centres undefined) read 19.23%. With Nc1ncc(CN2CCC(O)(c3ccccc3F)CC2)cn1 the screen gave 9.627%. Result for CCc1cnc(N2CCN(Cc3ccno3)CC2)s1 was 4.01%. With Cn1ccnc1CN1CCC2(CC1)CN(c1cncnc1)C(=O)CO2 the screen gave 4.945%.

COCCN1CCC(Cc2cncc(-c3ccc(C(=O)O)cc3)n2)C1 (centres undefined) read 11.3%. Oc1cc(-c2ccsc2)nc(C2CCN(Cc3cccnc3)CC2)n1 gave 18.62%. For CN(C)CCNC(=O)CCn1ncc2c(Cl)cccc21 the result was -6.784%. Cc1ccc(C(=O)N2CCC3(CCN3c3ncccn3)C2)cn1 (centres undefined) read 10.43%. With Cc1cccc(N2CCOCC3(C2)CN(c2cncnc2)C(=O)CO3)n1 (centres undefined) the screen gave 9.89%. With CC(NCCCc1cnn(C)c1)c1ccc(Cl)s1 (centres undefined) the screen gave 4.144%. With CCc1noc(-c2cccc(C(=O)O)c2)n1 the screen gave -0.2703%.

With Cc1csc(CN2CC[C@H]3C[C@H](c4nc(C)no4)O[C@@H]3C2)n1 the screen gave 0.625%. With Cc1sc(NC(=O)CN(C)S(C)(=O)=O)c(C#N)c1C the screen gave 14.71%. For CC(C)c1cc(C(=O)N2CCNCC2C(=O)NCc2ccncc2)on1 (centres undefined) the result was 14.98%. COC1COC2(CCN(C(=O)c3cscn3)CC2)C1 (centres undefined) gave -41.85%. With COCCN1CCCn2c(nc(CNC(=O)COC)cc2=O)C1 the screen gave 14.47%. O=C(NCCc1ccncc1)C1CCN(Cc2ccco2)CC1 read 5.854%. With O=C(O)c1ccccc1CN1CCC(c2ccnc3ccnn23)CC1 the screen gave 7.742%.

COCCOc1ccc(NC(=O)N2CCCC2c2ccsc2)cn1 (centres undefined) gave 17.53%. For CC(CC#N)N(C)Cc1ccccc1F (centres undefined) the result was 9.408%. For Cc1ccsc1C(=O)NCc1ccnc(C2CCCOC2)n1 (centres undefined) the result was 1.744%. For CC(C)(C)NC(=O)CNC(=O)c1cccnc1Oc1cccnc1 the result was 17.73%. For CCn1c(C)nnc1SCCNC(=O)c1sc(C(C)C)nc1C the result was 12.71%. Result for Cc1ccc(CNC2CCc3[nH]c(=O)ccc3C2)cc1C (centres undefined) was 8.122%. COCCNC(=O)C1(Cc2ccccc2-c2ccncc2)CCOCC1 read 14.84%.

Result for CC(C)n1ncc2c1NC(=O)CC21C(=O)Nc2c(Cl)ccc(Cl)c21 (centres undefined) was 8.182%. Result for CC(C)(C)NC(=O)CCn1ncc2c(Cl)cccc21 was -8.794%. With CC(C)Oc1ncccc1CNC(=O)N1CCSCC1 the screen gave 20.11%. CC(C)CN1C(=O)C2(CCCC2)NC12CCSCC2 read 11.54%. Result for CC(C(=O)NC(C)(C)C)S(=O)(=O)Cc1noc(C(C)(C)C)n1 (centres undefined) was 10.94%. With CC(C)n1ccnc1C1CCN(c2nccc(C(F)(F)F)n2)CC1 the screen gave 7.046%.

Once more, the final 4:

* CC(C)Oc1ncccc1CNC(=O)N1CCSCC1 : 20.11%
* CC(C)CN1C(=O)C2(CCCC2)NC12CCSCC2 : 11.54%
* CC(C(=O)NC(C)(C)C)S(=O)(=O)Cc1noc(C(C)(C)C)n1 (centres undefined) : 10.94%
* CC(C)n1ccnc1C1CCN(c2nccc(C(F)(F)F)n2)CC1 : 7.046%